Patent US20200341000A1, “METHOD OF SCREENING COMPOUNDS FOR TREATING CNS DISORDERS” (SAGE THERAPEUTICS, INC., priority 2017, published 2020)
Some entries share one result that the patent states for a list of compounds. For at least one compound, name, drawing or mass did not settle the structure.

System: seizures induced by kainate
Assay: Kainate-induced pharmacoresistant seizures, EEG seizure power
Type: in vivo
Settings: wild type mice

## C[C@@]1(O)CC[C@H]2[C@H](CC[C@@H]3[C@@H]2CC[C@]2(C)[C@@H](C(=O)Cn4nccn4)CC[C@@H]32)C1 [SGE-516]
3 mg/kg IP
  reduction in seizure power 10 minutes after treatment: ≤ 50%

## C[C@]12CC[C@@H](O)C[C@H]1CC[C@@H]1[C@@H]2CC[C@]2(C)[C@@H](C(=O)CO)CC[C@@H]12 [THDOC, Tetrahydrodeoxy- corticosterone]
80 kg/mg IP
  reduction in seizure power 10 minutes after treatment: ≤ 50%
